According to PubChem BioAssay AID2685 (National Center for Advancing Translational Sciences (NCATS), 2010):
The list shows a part of the results. The main result of the screen is listed elsewhere. These columns were measured beside it and carry no call. Compounds called inactive in the main read-out are mostly missing here. The note in brackets gives the kind of curve behind each potency; many fits are weak.

Assay: qHTS Assay for Lipid Storage Modulators in Drosophila S3 Cells;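 for cell number change: cells counted by Cell Tracker Red CMTPX staining in the red channel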
Settings: BODIPY lipid droplet fluorescence, 18-24 h; for cell number change: measured here: cell count max response, cells fed with added oleic acid
In short: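 Laser-scanning cytometry quantifies lipid droplet accumulation (500–530 nm total intensity; droplet/cell object ratio) in oleic acid-fed (400 uM added) Drosophila S3 cells treated with a concentration series. 20 uM Triacsin C defined 100% inhibition.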

[1] = measured here: lipid fluorescence (Fed channel) AC50, cells fed with added oleic acid
[2] = measured here: cell number channel AC50, cells fed with added oleic acid

SMILES	cell number change	AC50 [1]	AC50 [2]
CCC(c1nnc(SCC(=O)Nc2ccc(S(N)(=O)=O)cc2)n1Cc1ccccc1)N(C)C (stereo not drawn)	-11.3%	18.4 µM [falling, single point]	
O=c1c(-c2ccc([N+](=O)[O-])cc2)coc2c(O)c(O)ccc12	-12.2%	0.82 µM [falling, partial curve]	
COc1cc(CCC(=O)OCC(=O)Nc2ccc(F)c(F)c2F)cc(OC)c1OC	8.33%		0.461 µM [rising, full curve]
O=C(NCc1ccccn1)C1CC(c2ccc(F)cc2)=NO1 (stereo not drawn)	-1.06%		
O=C(CN1CCN(Cc2ccc3c(c2)OCO3)CC1)Nc1ccc2c(c1)OCCO2	9.6%	6.51 µM [rising, partial curve]	
O=C(NCc1ccccc1)C1CCCN(C(=O)NCc2ccccc2)C1 (stereo not drawn)	9.66%	3.26 µM [rising, full curve]	
Cc1csc(=O)n1CC(=O)OCC(=O)Nc1ccc(C(N)=O)cc1	-11.4%		
COc1ccc(S(=O)(=O)NCc2csc(C)n2)cc1OC	13%		
CC(=O)N1CCN(C23CC4CC(CC(C4)C2)C3)CC1	9.07%	7.31 µM [rising, partial curve, poor fit]	
Cc1cc2oc(=O)c(CC(=O)NCCCN(C)C)c(C)c2c2occ(C(C)(C)C)c12	-53.7%	29.1 µM [falling, single point]	25.9 µM [falling, single point]
Cc1ccc(CN2CCS(=O)(=O)CC2)o1	-48.5%	0.651 µM [rising, single point]	
CCOC(=O)CNC(=O)c1ccc2[nH]c3c(c2c1)CCCC3	14.6%	0.651 µM [rising, partial curve]	0.0461 µM [rising, full curve, poor fit]
O=C(CCC(=O)c1ccc(F)cc1)OCc1nnc(-c2ccc([N+](=O)[O-])cc2)o1	-3.58%	16.4 µM [falling, partial curve, poor fit]	
O=C(c1ccc(Cl)cc1)C(CN1CCCC1)c1ccccc1 (stereo not drawn)	-50.1%	23.1 µM [falling, single point]	9.2 µM [falling, partial curve]
O=C(CNC(=O)c1ccc(Br)o1)NNC(=O)c1n[nH]c(=O)c2ccccc12	-6.95%		6.51 µM [falling, single point]
O=C(O)/C(=C/c1ccco1)c1ccccc1	-58.1%	29.1 µM [falling, partial curve, poor fit]	32.6 µM [falling, partial curve, poor fit]
COc1cc(CNCCNC(=O)c2nonc2N)ccc1OCc1ccc(Cl)cc1	-20.7%	0.082 µM [falling, full curve, poor fit]	
CCn1cc(NC(=O)Nc2ccccc2C(=O)OC)c(C(N)=O)n1	-19.8%	29.1 µM [falling, single point]	0.116 µM [falling, full curve, poor fit]
COc1cc(S(=O)(=O)N2CCN=C2c2ccccc2)ccc1Cl	0.771%	14.6 µM [falling, partial curve, poor fit]	
COCCN(CC(=O)Nc1cccc(S(=O)(=O)N2CCCC2)c1)Cc1nc2ccccc2c(=O)[nH]1			0.58 µM [rising, single point]

SMILES	cell number change	AC50 [1]	AC50 [2]
CCOC(=O)C(=O)N1CCN(c2nc(-c3ccc(Cl)cc3)cs2)CC1	-5.28%		
CCN(C(=O)COC(=O)C1CC1)c1c(N)n(Cc2ccccc2)c(=O)[nH]c1=O	10.2%	7.31 µM [rising, partial curve]	
CNc1nc(Nc2ccc(Br)cc2)nc(N)c1[N+](=O)[O-]	-36.3%	23.1 µM [falling, single point]	29.1 µM [falling, single point]
CCCC[C@H]1COCCS(=O)(=O)N1Cc1ccc(C)cc1	22.5%		
COc1ccc(CNC(=O)C(OC(C)=O)c2ccccn2)cc1 (stereo not drawn)			0.164 µM [falling, full curve, poor fit]
CC(=O)c1cccc(NC(=O)Cn2cnc(S(=O)(=O)N3CCCCC3)c2)c1	21.8%		
CCCC[C@@H]1CNC(=O)C(=O)N1CC(C)(C)C	9.43%	7.31 µM [rising, partial curve, poor fit]	
Cc1ccc(C2=NOC(=O)/C2=C\C=C\c2ccccc2)cc1		4.11 µM [falling, full curve]	
Cc1cnc(C(=O)OCC(=O)Nc2ccc(Br)cc2F)cn1	-10.3%	29.1 µM [rising, single point]	
N#Cc1nc(-c2ccco2)oc1NCCN1CCOCC1	4.7%		
CC(C)N(C(=O)c1sc2cc([N+](=O)[O-])ccc2c1Cl)C(C)C		0.13 µM [rising, full curve, poor fit]	
CCc1ccc(N2CC(C(=O)N/N=C/c3ccccc3OC)CC2=O)cc1 (stereo not drawn)	13.9%		
O=C(CCCC(=O)N(CC(=O)NC1CCCCC1)c1cccc(F)c1)Nc1ccccn1	-6.58%	0.1 µM [falling, partial curve, poor fit]	
CCOc1ccc(S(=O)(=O)N2CCC(C(=O)NCCc3ccc(S(N)(=O)=O)cc3)CC2)cc1	25.5%	18.4 µM [rising, single point]	
O=C(O)C1C2C=CC(C2)C1C(=O)Nc1cccc(C(=O)N2CCCCC2)c1 (stereo not drawn)	34.4%	29.1 µM [rising, single point]	
Cc1ccc(S(=O)(=O)N(CC(=O)NCCSc2ccccn2)c2ccccc2F)cc1	7.92%	1.16 µM [falling, single point]	
O=C(Cn1nnc(-c2ccc(F)cc2)n1)Nc1ccc2c(c1)OCCO2	-19.3%	0.82 µM [falling, full curve, poor fit]	0.00517 µM [falling, full curve, poor fit]
C/C(=N\Nc1ccc(F)cc1F)c1cccs1	-15.8%		
CC(OC(=O)CNC(=O)C12CC3CC(CC(C3)C1)C2)C(=O)Nc1ccc(S(N)(=O)=O)cc1 (stereo not drawn)	-44.6%	0.0146 µM [falling, full curve]	0.326 µM [falling, partial curve]
CC(CCc1ccco1)NC(=O)CCc1nnc2ccc(NCc3ccccc3Cl)nn12 (stereo not drawn)	-43.6%	29.1 µM [falling, single point]	0.0164 µM [falling, full curve, poor fit]

SMILES	cell number change	AC50 [1]	AC50 [2]
O=C(CCC(=O)OCc1ccc(Br)cc1)Nc1ccccc1		7.31 µM [falling, partial curve]	0.58 µM [falling, single point]
CC(=O)C1C(c2ccccc2Cl)NC(=O)NC1(O)C(F)(F)F (stereo not drawn)	19.6%		
Cc1nnc(C)c2c(C)n(Cc3ccc4c(c3)OCO4)c(C)c12		1.84 µM [rising, partial curve]	
CCN1C(=O)C(O)(CC(=O)c2ccccn2)c2ccccc21 (stereo not drawn)	-23.3%		2.59 µM [falling, full curve, poor fit]
C(=N\N1CCN(Cc2cccc3ccccc23)CC1)/c1cccnc1	-22.5%	29.1 µM [falling, single point]	
NS(=O)(=O)c1ccc(CCNC(=O)c2ccc[nH]c2=S)cc1	-4.5%	0.58 µM [rising, single point]	
Cc1cccc(C(=O)Nc2nc3ccc(S(C)(=O)=O)cc3s2)c1	27%	25.9 µM [falling, single point]	
CCOC(=O)c1ccc(NC(=O)CCn2c(=O)oc3ccccc32)cc1	-4.46%	29.1 µM [falling, single point]	0.146 µM [rising, partial curve, poor fit]
O=C(COc1ccccc1)Nc1ccc(OC(F)(F)C(F)F)c(NC(=O)COc2ccccc2)c1		8.2 µM [rising, partial curve, poor fit]	0.116 µM [rising, partial curve]
Cc1nc2c3cc(F)ccc3n(Cc3ccccc3F)c2s1	37%	1.3 µM [rising, partial curve]	9.2 µM [rising, partial curve]
CCN1C(=NCCc2cccs2)N[C@@H](CCc2ccccc2)[C@H](C(=O)NCCc2cccs2)[C@H]1C		29.1 µM [falling, single point]	
O=C(CN1C(=O)c2ccccc2C1=O)Nc1ccc(N2CCOCC2)cc1	17.3%		
CCOC(=O)c1c(CSc2ccc(CC)cc2)oc2ccc(O)c(CN(C)C)c12	-71%	13 µM [falling, partial curve]	20.6 µM [falling, partial curve]
Cc1ccc(S(=O)(=O)N(CC(=O)NCc2ccncc2)Cc2ccc(F)cc2)cc1	9.57%	6.51 µM [rising, single point]	
Cc1cc(C(=O)N/N=C2\CC(=O)c3ccccc32)c(C)n1-c1ccccc1	-34.5%	0.58 µM [falling, full curve]	0.731 µM [falling, full curve]
COCCn1nnnc1C1(N(Cc2cc3cc(C)ccc3[nH]c2=O)CC2CCCO2)CCN(C)CC1 (stereo not drawn)	-18.9%	20.6 µM [rising, single point]	
COc1ccc(NC(=O)N2CCCc3ccccc32)cc1	33.5%		5.17 µM [rising, single point]
S=C(NC1CCCCCC1)NC1CCCC1	-29.3%	0.326 µM [falling, full curve, poor fit]	
Cc1ccccc1NCc1nnc2n1CCCCC2	-77.8%		

Copied from the list:
Value of CCOC(=O)c1c(CSc2ccc(CC)cc2)oc2ccc(O)c(CN(C)C)c12 under cell number change: -71%
Value of CCN1C(=NCCc2cccs2)N[C@@H](CCc2ccccc2)[C@H](C(=O)NCCc2cccs2)[C@H]1C under AC50 [1]: 29.1 µM [falling, single point]
